In PMC4729902 one finds binding data, which are given here for 1 molecule.

This assay deals with T1, MEIOC (Meiosis specific with coiled-coil domain), endogenous in mouse testis (mouse (endogenous in testis)) (UniProt A2AG06).
T1 sequence: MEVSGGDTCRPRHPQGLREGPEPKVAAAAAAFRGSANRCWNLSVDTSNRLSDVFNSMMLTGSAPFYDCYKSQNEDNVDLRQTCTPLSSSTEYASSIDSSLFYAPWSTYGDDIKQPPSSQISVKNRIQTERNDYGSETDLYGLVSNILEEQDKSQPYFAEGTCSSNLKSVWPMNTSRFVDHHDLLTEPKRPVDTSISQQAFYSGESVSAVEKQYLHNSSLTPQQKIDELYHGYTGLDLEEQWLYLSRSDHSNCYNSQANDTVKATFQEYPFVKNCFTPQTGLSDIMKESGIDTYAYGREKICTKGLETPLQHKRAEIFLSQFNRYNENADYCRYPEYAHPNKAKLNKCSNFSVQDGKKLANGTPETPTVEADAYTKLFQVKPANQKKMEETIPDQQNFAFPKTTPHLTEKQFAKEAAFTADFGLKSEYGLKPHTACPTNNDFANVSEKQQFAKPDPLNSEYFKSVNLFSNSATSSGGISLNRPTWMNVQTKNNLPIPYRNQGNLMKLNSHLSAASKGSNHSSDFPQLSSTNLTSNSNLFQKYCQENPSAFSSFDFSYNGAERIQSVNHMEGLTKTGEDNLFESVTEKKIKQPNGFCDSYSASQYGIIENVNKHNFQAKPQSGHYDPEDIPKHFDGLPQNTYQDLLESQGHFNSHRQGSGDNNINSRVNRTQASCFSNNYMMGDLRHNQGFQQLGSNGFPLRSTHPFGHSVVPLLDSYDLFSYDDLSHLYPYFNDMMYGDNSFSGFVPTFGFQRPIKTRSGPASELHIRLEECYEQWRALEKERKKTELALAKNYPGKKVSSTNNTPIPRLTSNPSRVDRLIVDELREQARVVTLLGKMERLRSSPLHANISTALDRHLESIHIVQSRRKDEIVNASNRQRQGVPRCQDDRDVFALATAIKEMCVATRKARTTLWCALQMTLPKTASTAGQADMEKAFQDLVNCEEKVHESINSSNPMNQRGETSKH
Kind of assay: affinity purification with mass spectrometry; IP of MEIOC-containing complexes with a commercial anti-MEIOC antibody from young (16 d.p.p.) Meioc+/+ testis extracts, Meioc-/- testes as control; extracts treated with 270 U/ml benzonase; nanoLC-LTQ-Orbitrap XL.

These are yes or no findings as the source states them, for the method shown. Binding seen in cells or lysates may run through a third protein. A yes stands for co-enrichment or nearness to the bait. Other partners may have been found.

B1: YTHDC2, endogenous in mouse testis (protein, UniProt B2RR83 1-1445)
chain: MSRPSSVSPRPPAPSGGGTGGGGGGSGGGGGGGGGGPASCGPGGGGRAKGLKDIRIDEEVKIAVNIALERFRYGDQREMEFPSSLTSTERAFIHRLSQSLGLVSKSKGKGANRYLTVKKKDGSETAHAMMTCNLTHNTKHAVRSLIQRFPVTNKERTELLPKTERGNVFAVEAENREMSKTSGRLNNGIPQVPVKRGESEFDSFRQSLPVFEKQEEIVKIIKENKVVLIVGETGSGKTTQIPQFLLDDCFKNGIPCRIFCTQPRRLAAIAVAERVAAERRERIGQTIGYQIRLESRVSPKTLLTFCTNGVLLRTLMAGDSTLSTVTHVIVDEVHERDRFSDFLLTKLRDLLQKHPTLKLILSSAALDVNLFIRYFGSCPVIYIQGRPFEVKEMFLEDILRTTGYTNKEMLKYKKEKQREEKQQTTLTEWYSAQENTFKPESQRQRAVASVSEEYDLLDDGGDAVFSQLTEKDVNCLEPWLIKEMDACLSDIWLHKDVDAFAQVFHLILTENVSVDYRHSETSATALMVAAGRGFTSQVEQLISMGANVHSKASNGWMALDWAKHFGQTEIVDLLESYSASLEFGNLDESSLVQTNGNDLSAEDRELLKAYHHSFDDEKVDLDLIMHLLYNICHSCDAGAILIFLPGYDEIVGLRDRILFDDKRFADNTHRYQVFMLHSNMQTSDQKKVLKNPPAGVRKIILSTNIAETSITVNDVVFVIDSGKVKEKSFDALNFVTMLKMVWISKASAIQRKGRAGRCRPGICFRLFSRLRFQNMLEFQTPELLRMPLQELCLHTKLLAPVNCTIADFLMKAPEPPPALIVRNAVQMLKTIDAMDAWEDLTELGYHLADLPVEPHLGKMVLCAVVLKCLDPILTIACTLAYRDPFVLPTQASQKRAAMLCRKRFTAGTFSDHMALLRAFQAWQKARSDGWERAFCEKNFLSQATMEIIIGMRTQLLGQLRASGFVRARGGGDIRDVNTNSENWAVVKAALVAGMYPNLVHVDRENVILTGPKEKKVRFHPTSVLSQPQYKKIPPANGQAAAIQALPTDWLIYDEMTRAHRIANIRCCSAVTPVTVLVFCGPARLASNALQEPSSFRADGIPNDSSDSEMEDRTTANLAALKLDEWLNFKLEPEAASLLLQLRQKWHSLFLRRMRAPSKPWSQVDEATIRAIIAVLSTEEQSAGLQQPSGIGQRPRPMSSEELPLASSWRSNNSRKSTADTEFADGSTTGERVLMKSPSPALHPPQKYKDRGILHPKRSTDDRSDQSSVKSTDSSSYPSPCASPSPPSSGKGSKSPSPRPNMPIRYFIMKSSNLRNLEISQQKGIWSTTPSNERKLNRAFWESSMVYLVFSVQGSGHFQGFSRMSSEIGREKSQDWGSAGLGGVFKVEWIRKESLPFQFAHHLLNPWNDNKKVQISRDGQELEPQVGEQLLQLWERLPLGEKTTSD
B1: the binding result is given as “binds”.
